Assay results from the supplement of paper PMC7666118.
This is one part of the list.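 Rule for the calls: active = dose-dependent thermal stabilisation significant by F-test of dose-response against flat model at 10% FDR; inactive = not significant.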

By UniProt entry, the sequences of proteins in these tests, tags left out. Where a name states a change or a piece, a line headed by the entry shows the natural chain unless it says otherwise.
UniProt O75683: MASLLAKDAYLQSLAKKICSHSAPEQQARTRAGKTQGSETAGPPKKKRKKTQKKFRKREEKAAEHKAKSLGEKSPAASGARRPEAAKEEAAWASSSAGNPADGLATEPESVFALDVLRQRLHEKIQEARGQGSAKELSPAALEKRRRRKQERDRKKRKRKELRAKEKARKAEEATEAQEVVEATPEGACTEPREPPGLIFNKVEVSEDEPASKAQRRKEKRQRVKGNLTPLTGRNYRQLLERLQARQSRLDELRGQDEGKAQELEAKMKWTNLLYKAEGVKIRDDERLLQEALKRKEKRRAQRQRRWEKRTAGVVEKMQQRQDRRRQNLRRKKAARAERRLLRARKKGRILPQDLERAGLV
UniProt Q9NZ72: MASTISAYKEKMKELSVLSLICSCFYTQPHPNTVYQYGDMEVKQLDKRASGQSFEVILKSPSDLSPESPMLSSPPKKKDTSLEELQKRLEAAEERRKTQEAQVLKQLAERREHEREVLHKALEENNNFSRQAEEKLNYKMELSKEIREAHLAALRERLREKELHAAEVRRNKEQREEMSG
UniProt O43815: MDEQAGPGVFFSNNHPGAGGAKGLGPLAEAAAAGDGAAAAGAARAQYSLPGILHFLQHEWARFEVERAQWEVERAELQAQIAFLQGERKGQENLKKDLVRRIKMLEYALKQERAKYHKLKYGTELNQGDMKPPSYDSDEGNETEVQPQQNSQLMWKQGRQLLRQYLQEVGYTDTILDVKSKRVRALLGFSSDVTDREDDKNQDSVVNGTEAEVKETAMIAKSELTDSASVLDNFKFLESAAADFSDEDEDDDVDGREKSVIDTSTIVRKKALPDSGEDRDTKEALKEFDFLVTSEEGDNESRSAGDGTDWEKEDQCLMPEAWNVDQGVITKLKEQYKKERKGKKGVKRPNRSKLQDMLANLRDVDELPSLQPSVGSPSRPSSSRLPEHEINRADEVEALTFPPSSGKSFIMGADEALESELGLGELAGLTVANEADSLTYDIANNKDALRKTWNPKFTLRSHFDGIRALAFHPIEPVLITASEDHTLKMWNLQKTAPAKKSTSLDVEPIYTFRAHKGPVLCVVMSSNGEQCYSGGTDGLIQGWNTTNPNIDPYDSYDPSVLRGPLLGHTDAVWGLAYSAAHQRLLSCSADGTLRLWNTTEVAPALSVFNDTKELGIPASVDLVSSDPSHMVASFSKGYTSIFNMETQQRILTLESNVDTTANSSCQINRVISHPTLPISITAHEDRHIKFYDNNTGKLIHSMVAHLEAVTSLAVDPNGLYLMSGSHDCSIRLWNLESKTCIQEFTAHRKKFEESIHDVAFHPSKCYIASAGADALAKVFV
UniProt Q8WVM7: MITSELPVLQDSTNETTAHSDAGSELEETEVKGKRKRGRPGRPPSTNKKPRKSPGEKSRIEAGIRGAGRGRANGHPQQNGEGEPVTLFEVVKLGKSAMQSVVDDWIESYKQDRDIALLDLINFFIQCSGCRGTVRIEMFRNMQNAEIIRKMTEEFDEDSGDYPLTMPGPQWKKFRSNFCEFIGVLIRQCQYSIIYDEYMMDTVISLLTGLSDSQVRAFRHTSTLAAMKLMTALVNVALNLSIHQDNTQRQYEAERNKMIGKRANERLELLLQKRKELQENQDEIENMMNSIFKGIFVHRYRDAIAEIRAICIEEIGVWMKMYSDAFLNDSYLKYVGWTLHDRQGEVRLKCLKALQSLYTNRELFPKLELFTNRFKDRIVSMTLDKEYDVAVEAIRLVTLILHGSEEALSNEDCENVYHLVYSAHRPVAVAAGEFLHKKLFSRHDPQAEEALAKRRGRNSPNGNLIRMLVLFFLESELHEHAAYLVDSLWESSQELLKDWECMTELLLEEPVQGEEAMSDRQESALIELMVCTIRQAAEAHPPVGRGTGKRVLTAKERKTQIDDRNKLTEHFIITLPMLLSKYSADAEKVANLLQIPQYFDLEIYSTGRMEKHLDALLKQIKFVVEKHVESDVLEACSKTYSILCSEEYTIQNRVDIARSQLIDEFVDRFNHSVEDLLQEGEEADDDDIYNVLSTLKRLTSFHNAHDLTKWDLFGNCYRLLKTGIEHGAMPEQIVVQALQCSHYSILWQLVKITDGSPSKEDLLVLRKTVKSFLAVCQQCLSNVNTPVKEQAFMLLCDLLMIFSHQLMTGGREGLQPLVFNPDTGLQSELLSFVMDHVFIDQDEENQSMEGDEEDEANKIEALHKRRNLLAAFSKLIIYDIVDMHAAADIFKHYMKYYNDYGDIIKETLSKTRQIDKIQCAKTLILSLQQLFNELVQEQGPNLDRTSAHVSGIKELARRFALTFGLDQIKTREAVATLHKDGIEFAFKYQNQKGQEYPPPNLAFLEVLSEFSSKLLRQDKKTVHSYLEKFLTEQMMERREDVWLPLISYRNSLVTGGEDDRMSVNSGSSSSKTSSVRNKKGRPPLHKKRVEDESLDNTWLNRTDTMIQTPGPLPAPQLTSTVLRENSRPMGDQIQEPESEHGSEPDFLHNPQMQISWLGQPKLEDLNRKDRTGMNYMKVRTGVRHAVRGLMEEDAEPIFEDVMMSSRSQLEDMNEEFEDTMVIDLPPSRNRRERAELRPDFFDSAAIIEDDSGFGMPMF
UniProt Q92540: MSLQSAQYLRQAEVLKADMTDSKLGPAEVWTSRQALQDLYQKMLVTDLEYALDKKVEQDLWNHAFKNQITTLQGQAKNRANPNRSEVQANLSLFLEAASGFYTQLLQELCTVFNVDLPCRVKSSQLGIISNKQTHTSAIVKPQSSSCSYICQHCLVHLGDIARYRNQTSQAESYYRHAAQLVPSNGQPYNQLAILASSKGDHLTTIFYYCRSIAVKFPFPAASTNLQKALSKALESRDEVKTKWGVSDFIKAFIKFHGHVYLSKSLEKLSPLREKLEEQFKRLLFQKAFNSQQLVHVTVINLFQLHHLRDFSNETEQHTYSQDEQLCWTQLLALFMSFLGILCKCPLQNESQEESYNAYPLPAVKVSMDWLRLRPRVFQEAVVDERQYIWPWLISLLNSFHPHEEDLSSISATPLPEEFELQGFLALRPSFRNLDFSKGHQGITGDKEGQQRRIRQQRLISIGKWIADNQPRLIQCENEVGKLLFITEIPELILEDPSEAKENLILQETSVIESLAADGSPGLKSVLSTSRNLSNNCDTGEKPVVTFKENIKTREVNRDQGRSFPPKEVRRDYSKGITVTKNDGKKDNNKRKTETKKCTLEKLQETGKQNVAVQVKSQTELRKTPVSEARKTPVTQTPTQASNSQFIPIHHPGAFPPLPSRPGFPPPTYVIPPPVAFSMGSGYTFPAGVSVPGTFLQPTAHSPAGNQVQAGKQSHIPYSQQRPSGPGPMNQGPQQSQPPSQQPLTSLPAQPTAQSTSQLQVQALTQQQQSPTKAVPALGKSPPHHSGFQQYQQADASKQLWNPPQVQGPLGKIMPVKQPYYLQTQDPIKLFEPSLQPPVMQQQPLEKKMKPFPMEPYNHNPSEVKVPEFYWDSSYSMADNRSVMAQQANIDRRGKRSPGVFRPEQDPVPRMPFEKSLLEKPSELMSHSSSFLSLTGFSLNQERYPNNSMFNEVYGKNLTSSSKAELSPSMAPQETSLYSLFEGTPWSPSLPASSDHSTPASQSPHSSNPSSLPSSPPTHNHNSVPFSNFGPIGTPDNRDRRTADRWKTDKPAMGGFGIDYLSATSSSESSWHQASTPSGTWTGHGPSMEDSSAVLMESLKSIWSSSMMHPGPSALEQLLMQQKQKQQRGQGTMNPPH
UniProt Q08170: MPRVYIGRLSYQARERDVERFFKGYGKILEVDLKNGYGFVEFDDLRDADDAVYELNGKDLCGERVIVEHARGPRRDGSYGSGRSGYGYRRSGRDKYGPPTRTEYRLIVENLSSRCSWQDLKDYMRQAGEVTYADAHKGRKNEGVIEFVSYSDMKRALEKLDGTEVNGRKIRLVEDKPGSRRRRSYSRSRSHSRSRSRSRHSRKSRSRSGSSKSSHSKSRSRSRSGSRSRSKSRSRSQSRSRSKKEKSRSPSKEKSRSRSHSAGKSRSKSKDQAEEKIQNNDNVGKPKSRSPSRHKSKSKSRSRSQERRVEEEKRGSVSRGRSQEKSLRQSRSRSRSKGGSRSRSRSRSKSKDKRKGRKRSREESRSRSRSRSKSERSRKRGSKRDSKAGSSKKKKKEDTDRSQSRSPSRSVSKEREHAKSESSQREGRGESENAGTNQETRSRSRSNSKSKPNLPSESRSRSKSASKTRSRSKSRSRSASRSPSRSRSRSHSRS
UniProt P62316, whole entry: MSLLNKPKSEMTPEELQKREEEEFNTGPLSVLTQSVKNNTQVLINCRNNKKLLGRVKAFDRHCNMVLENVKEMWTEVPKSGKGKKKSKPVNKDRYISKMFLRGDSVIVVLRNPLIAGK
UniProt Q06945: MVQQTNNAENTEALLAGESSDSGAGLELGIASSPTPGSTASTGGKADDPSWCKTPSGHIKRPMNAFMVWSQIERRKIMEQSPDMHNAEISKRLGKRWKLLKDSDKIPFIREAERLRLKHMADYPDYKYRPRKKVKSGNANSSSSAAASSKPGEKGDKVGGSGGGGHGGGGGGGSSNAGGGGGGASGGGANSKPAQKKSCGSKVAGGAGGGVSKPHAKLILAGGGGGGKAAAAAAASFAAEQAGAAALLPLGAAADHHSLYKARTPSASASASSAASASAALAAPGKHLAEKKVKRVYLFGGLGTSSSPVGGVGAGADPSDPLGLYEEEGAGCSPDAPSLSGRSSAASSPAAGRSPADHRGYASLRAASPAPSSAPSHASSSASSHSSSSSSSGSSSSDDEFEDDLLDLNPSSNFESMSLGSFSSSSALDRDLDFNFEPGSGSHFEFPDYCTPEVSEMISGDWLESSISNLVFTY
UniProt P09234, whole entry: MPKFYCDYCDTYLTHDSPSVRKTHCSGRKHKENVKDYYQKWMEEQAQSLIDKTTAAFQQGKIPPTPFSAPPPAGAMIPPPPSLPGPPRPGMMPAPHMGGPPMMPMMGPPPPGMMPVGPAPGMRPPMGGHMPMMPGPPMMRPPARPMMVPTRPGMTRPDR
UniProt Q7Z422: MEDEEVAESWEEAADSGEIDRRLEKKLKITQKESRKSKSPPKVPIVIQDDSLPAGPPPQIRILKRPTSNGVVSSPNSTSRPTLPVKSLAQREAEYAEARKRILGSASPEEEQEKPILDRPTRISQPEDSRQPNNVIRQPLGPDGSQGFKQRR
UniProt O60232: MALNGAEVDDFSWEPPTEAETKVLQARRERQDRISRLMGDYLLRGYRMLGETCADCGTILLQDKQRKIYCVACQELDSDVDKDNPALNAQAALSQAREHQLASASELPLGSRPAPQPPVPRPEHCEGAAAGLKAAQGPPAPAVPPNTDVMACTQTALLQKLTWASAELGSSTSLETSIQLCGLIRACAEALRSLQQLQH
UniProt Q8NDV3: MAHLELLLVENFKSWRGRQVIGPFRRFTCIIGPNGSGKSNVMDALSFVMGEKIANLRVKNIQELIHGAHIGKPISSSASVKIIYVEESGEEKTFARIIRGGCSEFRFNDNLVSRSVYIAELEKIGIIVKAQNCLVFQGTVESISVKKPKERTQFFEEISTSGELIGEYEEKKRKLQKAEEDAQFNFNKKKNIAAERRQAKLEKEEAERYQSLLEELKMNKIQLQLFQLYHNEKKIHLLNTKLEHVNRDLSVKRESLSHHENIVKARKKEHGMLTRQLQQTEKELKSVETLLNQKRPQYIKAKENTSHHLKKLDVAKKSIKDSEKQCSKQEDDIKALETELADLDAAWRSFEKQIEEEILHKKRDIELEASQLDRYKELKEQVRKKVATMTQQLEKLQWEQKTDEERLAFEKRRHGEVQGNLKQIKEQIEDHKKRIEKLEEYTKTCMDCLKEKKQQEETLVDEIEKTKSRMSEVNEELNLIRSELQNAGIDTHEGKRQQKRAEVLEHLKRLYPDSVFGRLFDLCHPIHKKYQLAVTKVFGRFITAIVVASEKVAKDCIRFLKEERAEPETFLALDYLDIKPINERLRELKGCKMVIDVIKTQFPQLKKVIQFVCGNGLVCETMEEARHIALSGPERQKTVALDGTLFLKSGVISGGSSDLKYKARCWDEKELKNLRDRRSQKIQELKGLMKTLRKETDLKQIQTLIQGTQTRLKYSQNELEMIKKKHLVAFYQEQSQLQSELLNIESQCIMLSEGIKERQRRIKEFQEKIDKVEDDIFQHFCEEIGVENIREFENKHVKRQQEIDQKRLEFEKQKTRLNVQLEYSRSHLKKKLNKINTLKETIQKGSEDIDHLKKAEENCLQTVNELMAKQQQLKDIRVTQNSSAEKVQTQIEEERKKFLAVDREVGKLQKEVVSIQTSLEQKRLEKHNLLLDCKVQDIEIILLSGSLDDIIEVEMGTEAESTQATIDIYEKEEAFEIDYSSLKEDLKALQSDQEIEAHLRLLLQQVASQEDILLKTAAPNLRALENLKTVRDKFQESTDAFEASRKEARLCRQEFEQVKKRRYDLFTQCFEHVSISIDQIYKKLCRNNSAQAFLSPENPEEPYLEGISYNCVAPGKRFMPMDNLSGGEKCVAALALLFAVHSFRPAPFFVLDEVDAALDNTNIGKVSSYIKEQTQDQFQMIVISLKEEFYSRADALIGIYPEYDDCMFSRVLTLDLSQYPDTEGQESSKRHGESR

compound: Nc1nc2c(ncn2[C@@H]2O[C@H](COP(=O)(O)OP(=O)(O)OP(=O)(O)O)[C@@H](O)[C@H]2O)c(=O)[nH]1; test: dose-dependent thermal stabilisation call (2D-TPP, DLPTP, 10% FDR) (binary (1 = stabilised)); higher = stabilised by the compound; settings: system: Jurkat gel-filtered lysate; concentration range 1-500 µM
Experimental: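 2D thermal proteome profiling in gel-filtered Jurkat E6.1 lysate (2 mg/ml) treated with NaGTP (0, 1, 10, 100, 500 uM) for 10 min at room temperature, then heated 3 min at one of 12 temperatures (42-63.9 C). Soluble protein was quantified by TMT10 MS. The value is the DLPTP call of the paper: dose-dependent thermal stabilisation over all temperatures at 10% FDR (F-test of a dose-response against a flat model); one experiment, one call per tested protein.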

| Target | dose-dependent thermal stabilisation call |
| --- | --- |
| SWAP70 (UniProt Q9UH65) | active: 1 |
| SMC3 (UniProt Q9UQE7) | inactive: 0 |
| SURF6 (UniProt O75683) | inactive: 0 |
| STMN3 (UniProt Q9NZ72) | inactive: 0 |
| SPATA5 (UniProt Q8NB90) | active: 1 |
| TAF5 (UniProt Q15542) | active: 1 |
| STRN (UniProt O43815) | inactive: 0 |
| SYNE2 (UniProt Q8WXH0) | inactive: 0 |
| STXBP2 (UniProt Q15833) | active: 1 |
| SLC7A6OS (UniProt Q96CW6) | inactive: 0 |
| SMC6 (UniProt Q96SB8) | active: 1 |
| STAMBPL1 (UniProt Q96FJ0) | inactive: 0 |
| STX7 (UniProt O15400) | inactive: 0 |
| STAT1 (UniProt P42224) | inactive: 0 |
| STAG1 (UniProt Q8WVM7) | inactive: 0 |
| SRF (UniProt P11831) | inactive: 0 |
| SND1 (UniProt Q7KZF4) | active: 1 |
| SMG7 (UniProt Q92540) | inactive: 0 |
| SMAD5 (UniProt Q99717) | inactive: 0 |
| SPICE1 (UniProt Q8N0Z3) | inactive: 0 |

7 entries from above, tab-delimited:
Target	dose-dependent thermal stabilisation call
SMC6 (UniProt Q96SB8)	active: 1
STAMBPL1 (UniProt Q96FJ0)	inactive: 0
STX7 (UniProt O15400)	inactive: 0
STAT1 (UniProt P42224)	inactive: 0
STAG1 (UniProt Q8WVM7)	inactive: 0
SRF (UniProt P11831)	inactive: 0
SND1 (UniProt Q7KZF4)	active: 1

Later entries:

| Target | dose-dependent thermal stabilisation call |
| --- | --- |
| SRSF4 (UniProt Q08170) | active: 1 |
| SUDS3 (UniProt Q9H7L9) | inactive: 0 |
| TAF6L (UniProt Q9Y6J9) | inactive: 0 |
| SMG1 (UniProt Q96Q15) | inactive: 0 |
| SRRM2 (UniProt Q9UQ35) | inactive: 0 |
| SNRPD2 (UniProt P62316) | inactive: 0 |
| SOX4 (UniProt Q06945) | inactive: 0 |
| SNRPD3 (UniProt P62318) | inactive: 0 |
| SNRPC (UniProt P09234) | inactive: 0 |
| SRP54 (UniProt P61011) | active: 1 |
| SUPT5H (UniProt O00267) | inactive: 0 |
| SRSF10 (UniProt O75494) | inactive: 0 |
| TAB2 (UniProt Q9NYJ8) | inactive: 0 |
| SIAH1 (UniProt Q8IUQ4) | inactive: 0 |
| SP4 (UniProt Q02446) | inactive: 0 |
| STX12 (UniProt Q86Y82) | inactive: 0 |
| SZRD1 (UniProt Q7Z422) | inactive: 0 |
| SSSCA1 (UniProt O60232) | inactive: 0 |
| SNRNP200 (UniProt O75643) | inactive: 0 |
| SMC1B (UniProt Q8NDV3) | inactive: 0 |
